# Assay results reported in PubChem BioAssay AID1117319 (Southern Research Institute, 2015).
# By UniProt entry, the sequences of proteins in these tests, tags left out. Where a name states a change or a piece, a line headed by the entry shows the natural chain unless it says otherwise.
# UniProt P69720: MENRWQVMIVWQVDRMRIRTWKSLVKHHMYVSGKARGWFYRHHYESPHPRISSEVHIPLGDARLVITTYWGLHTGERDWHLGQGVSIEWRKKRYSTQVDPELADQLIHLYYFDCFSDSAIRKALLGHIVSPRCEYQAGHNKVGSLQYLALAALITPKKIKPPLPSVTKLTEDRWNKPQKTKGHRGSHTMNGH
# UniProt P69721: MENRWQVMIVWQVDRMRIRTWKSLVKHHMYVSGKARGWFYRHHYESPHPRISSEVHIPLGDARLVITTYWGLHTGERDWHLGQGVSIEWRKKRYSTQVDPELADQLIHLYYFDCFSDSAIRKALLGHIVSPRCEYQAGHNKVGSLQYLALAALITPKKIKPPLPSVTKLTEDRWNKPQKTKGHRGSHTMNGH
# UniProt P69722: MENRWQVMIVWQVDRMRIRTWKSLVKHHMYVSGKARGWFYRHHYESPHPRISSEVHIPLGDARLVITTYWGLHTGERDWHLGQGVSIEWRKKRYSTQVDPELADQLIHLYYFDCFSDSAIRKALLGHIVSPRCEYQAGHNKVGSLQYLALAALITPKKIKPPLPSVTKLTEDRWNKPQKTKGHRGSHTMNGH
# UniProt P69723: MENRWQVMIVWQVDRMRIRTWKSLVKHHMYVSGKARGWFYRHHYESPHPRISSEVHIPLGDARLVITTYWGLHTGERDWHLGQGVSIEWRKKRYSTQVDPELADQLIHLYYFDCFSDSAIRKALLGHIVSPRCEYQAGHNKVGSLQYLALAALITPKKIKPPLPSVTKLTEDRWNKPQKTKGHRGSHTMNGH
# UniProt Q9HC16: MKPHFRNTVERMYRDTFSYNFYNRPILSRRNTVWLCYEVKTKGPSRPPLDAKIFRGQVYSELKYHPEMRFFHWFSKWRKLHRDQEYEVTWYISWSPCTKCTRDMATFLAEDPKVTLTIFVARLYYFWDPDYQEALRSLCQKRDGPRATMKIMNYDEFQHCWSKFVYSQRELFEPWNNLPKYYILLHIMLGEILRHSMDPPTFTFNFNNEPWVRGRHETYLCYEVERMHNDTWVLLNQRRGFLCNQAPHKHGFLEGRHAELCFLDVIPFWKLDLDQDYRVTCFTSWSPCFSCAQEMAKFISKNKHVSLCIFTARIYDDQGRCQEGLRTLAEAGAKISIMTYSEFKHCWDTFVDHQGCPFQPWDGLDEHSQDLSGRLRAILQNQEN
# Screen size: about 260,000 compounds; about 1,500 (0.58%) were called active. Inconclusive means that the source gave no clear call. Such entries were picked first, then a sample of the others.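 Rule for the calls: active = inhibition above a set limit at one or more doses, reproduced on every date tested; inconclusive = results disagree between test dates, or hit never tested in dose response; inactive = the rest.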
# Biological target: Virion infectivity factor (Human immunodeficiency virus type 1 group M subtype B (isolate BH10)) + Virion infectivity factor (Human immunodeficiency virus type 1 group M subtype B (isolate BRU/LAI)) + Virion infectivity factor (Human immunodeficiency virus type 1 group M subtype B (isolate PCV12)) + Virion infectivity factor (Human immunodeficiency virus type 1 group M subtype B (isolate HXB2)) + DNA dC->dU-editing enzyme APOBEC-3G (Homo sapiens) (UniProt P69720+P69721+P69722+P69723+Q9HC16)
# Experiment: inhibitors of Vif binding to APOBEC3G peptide, primary screen, biochemical, TR-FRET, GST-Vif 1-94, biotin-A3G peptide, dose response retest (AID 1117319);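 note: Vif residues 1-94 fused to GST binding biotinylated APOBEC3G peptide 110-148; 0% = full assay without inhibitor and 100% = GST in place of GST-Vif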
# Settings: active compounds read high
row,SMILES,inhibition
1,Cc1ccc(Nc2ccc(C(=O)O)cc2N)cc1,inactive: 15%
2,O=C(O)c1cccc2c1C(=O)c1cc([N+](=O)[O-])cc([N+](=O)[O-])c1-2,inactive: 6.48%
3,CCc1ccccc1NC1Nc2cc(C)nn2S1 (centres undefined),inconclusive: 38.3%
4,CCOC(=O)c1cc2sccc2n1CC(=O)N1CCc2ccccc21,inconclusive: 25.7%
5,CC(C)Cc1ccc(C(C)C(=O)Nc2ccc(O)cc2)cc1 (centres undefined),inconclusive: 60.6%
6,Cc1n[nH]c(C)c1S(=O)(=O)N(C)Cc1ccco1,inactive: 0%
7,COc1ccc(-c2oc3ncnc(N)c3c2-c2ccccc2)cc1,inactive: -1.94%
8,O=C(Nc1cccc(F)c1)N1CC=C(n2c(=O)[nH]c3ccccc32)CC1,inconclusive: 39.9%
9,COc1ccc(OC)c(-c2nc(C)sc2CC(=O)O)c1,inconclusive: 43.7%
10,CCN1CCCC1CN(Cc1cc2c(C)cc(C)cc2[nH]c1=O)C(=O)NC1CCCCC1 (centres undefined),inconclusive: 37.9%
11,c1cnc(N2CCN(c3ccc4ccccc4n3)CC2)nc1,inconclusive: 35.3%
12,COc1ccccc1NS(=O)(=O)c1cccc(-n2c(O)c(C=Nc3ccccc3C(=O)O)c3ccccc3c2=O)c1,inconclusive: 38.5%
13,C=CCn1c(SCC(=O)c2cccs2)nnc1-c1cccc(OC)c1,inconclusive: 35.8%
14,COC(=O)C(=Cc1ccccc1[N+](=O)[O-])C(=O)OC,inconclusive: 37.2%
15,O=C(O)CONC(=O)c1cc(OCC(F)(F)F)ccc1OCC(F)(F)F,inconclusive: 45.5%
16,Cc1cc(-c2nnc3n2N=C(c2ccccc2)CS3)n[nH]1,inconclusive: 40.3%
17,O=C(/C=C/c1ccco1)c1ccccc1O,inconclusive: 40.3%
18,COc1cccc(C(=O)N2CCN(C(=O)Cc3ccccc3)CC2)c1,inactive: -2.27%
19,O=[N+]([O-])c1ccc(Nc2ccc(Cl)cc2)nc1,inconclusive: 51.6%
20,O=C1NC(=S)/C(=C\c2ccc(-c3ccccc3Cl)o2)S1,inconclusive: 47.5%

row,SMILES,inhibition
1,Cc1cccc(N(C(=O)c2snc(C(N)=O)c2N)C(C(=O)NCC2CCCO2)c2c[nH]c3ccccc23)c1 (centres undefined),inconclusive: 42.5%
2,COC(=O)c1cnn2c(C(F)(F)F)cc(-c3ccccc3)nc12,inconclusive: 35.3%
3,CC(C)C1Oc2ccccc2N(CC(=O)N(Cc2ccncc2)Cc2ccco2)C1=O (centres undefined),inconclusive: 37.3%
4,COc1ccc(/C=N/NC(=O)c2cc(-c3ccccc3OC)nc3ccccc23)cc1COC(C)=O,inactive: -2.13%
5,CC12CCCCC1(O)[N+](=O)C1=C(CCCC1)N2[O-] (centres undefined),inconclusive: 57.8%
6,c1ccc2[nH]c(CSc3nc4ccccc4o3)nc2c1,inconclusive: 33.8%
7,CN(C)CCCN(Cc1cc2cc3c(cc2[nH]c1=O)OCCO3)C(=O)NC1CCCCC1,inconclusive: 54.6%
8,CCOC(=O)COn1c(=O)c(-c2cc3ccccc3o2)[n+]([O-])c2ccccc21,inconclusive: 54.3%
9,Cc1cc2cc(C#N)c(N3CCN(S(C)(=O)=O)CC3)nc2cc1C,inconclusive: 57.2%
10,NC(=O)c1ccsc1NC(=O)CSc1nnc(Nc2ccccc2)s1,inconclusive: 35.6%
11,O=C(Nc1ccc(NC(=O)c2cc([N+](=O)[O-])ccc2N2CCOCC2)cc1)c1cccs1,inconclusive: 33.2%
12,CC1(C)CC(=O)C2=C(C1)NCN(Cc1ccccc1)C2,inactive: 0.39%
13,Cc1noc(N)c1C(=O)Nc1ccc(F)c(Cl)c1,inactive: -9.43%
14,O=C(N=C1SC2CS(=O)(=O)CC2N1Cc1ccccc1)C1CC1 (centres undefined),inactive: -2.49%
15,COc1ccc(S(=O)(=O)Nc2ccc(O)c3ccccc23)cc1,inconclusive: 49.7%
16,O=C(CSc1nnc(COc2ccccc2)o1)N1CCCC1,inconclusive: 44.1%
17,Cc1cc(C)c2c(c1)cc(C)c1nnc(SCC(=O)Nc3cc(C)on3)n12,inconclusive: 36%
18,COc1ccc(C2c3c(ncn(CCCN4CCOCC4)c3=N)Oc3ccc4ccccc4c32)cc1OC (centres undefined),inconclusive: 41.5%
19,CC(C)CNC(=O)c1cccc(NC(=O)C(C)C)c1,inconclusive: 55.7%
20,Fc1ccccc1Cc1ccc(Cl)nn1,inconclusive: 53%

# Looked up by structure from above, four records:
row,SMILES,inhibition
14,O=C(N=C1SC2CS(=O)(=O)CC2N1Cc1ccccc1)C1CC1 (centres undefined),inactive: -2.49%
12,CC1(C)CC(=O)C2=C(C1)NCN(Cc1ccccc1)C2,inactive: 0.39%
13,Cc1noc(N)c1C(=O)Nc1ccc(F)c(Cl)c1,inactive: -9.43%
15,COc1ccc(S(=O)(=O)Nc2ccc(O)c3ccccc23)cc1,inconclusive: 49.7%

# The results go on:

row,SMILES,inhibition
1,O=C(/C=C\c1ccco1)Nc1cc([N+](=O)[O-])ccc1F,inconclusive: 53%
2,O=C(NCC1COCCO1)c1cc(COc2ccc(F)cc2F)on1 (centres undefined),inconclusive: 37.4%
3,c1cc2c(cc1-c1[nH]ncc1CN1C[C@H]3CC[C@H]1C3)OCO2,inconclusive: 52.1%
4,CC(C)(C)n1nc2c(c1NC(=O)c1ccc(S(=O)(=O)N3CCCC3)cc1)CSC2,inconclusive: 35.2%
5,COC(=O)CCCC1=CC2=CC(=O)C(C)(OC(=O)c3cccs3)C(=O)C2=CN1CCc1ccccn1 (centres undefined),inconclusive: 41.4%
6,CCCCN(CCCC)CC1OCc2ccccc2CO1,inactive: -2.33%
7,O=C(Cn1nnc2ccccc21)c1cccc([N+](=O)[O-])c1,inconclusive: 34.1%
8,Cc1cc(SCc2ccc(Cl)cc2Cl)nc(=O)[nH]1,inconclusive: 34.8%
9,Cn1cnnc1SCC(=O)Nc1cc(C(F)(F)F)ccc1N1CCOCC1,inconclusive: 43%
10,CCc1ccc(N2CSC3=C(C#N)C(c4cccs4)CC(=O)N3C2)cc1 (centres undefined),inconclusive: 41.1%
11,CCc1c(C(=O)OC)nnc2cc(C)nn12,inactive: -2.39%
12,C1=CC2CCC1ON2c1ccccc1 (centres undefined),inconclusive: 38%
13,Cc1c2c(=O)n(-c3nc4ccccc4s3)nc-2cc(O)n1Cc1ccccc1,inconclusive: 62.6%
14,Cc1ccc(Cl)c(OCC(=O)NN2CCN(C)CC2)c1,inconclusive: 63%
15,COC(=O)CSc1nnc(C)n1-c1cccc(C#N)c1,inconclusive: 46%
16,CC(C)C(=O)Nc1ccc(NC(=S)NC(=O)c2ccc([N+](=O)[O-])cc2)cc1,inconclusive: 7.81%
17,Nc1ccc2oc(-c3ccccc3Cl)cc(=O)c2c1O,inconclusive: 56.6%
18,CCOC(=O)c1ccc(NC(=O)C(=O)NCc2ccncc2)cc1,inactive: 27%
19,COc1ccc(CN(C(=O)c2cccs2)c2ccccc2C(=O)O)cc1,inactive: -12.9%
